The source of these data is publication PMC12205651, “A 36-base hairpin within lncRNA DRAIC, which is modulated by alternative splicing, interacts with the IKKα coiled-coil domain and inhibits NF-κB and tumor cell phenotypes”.

In data set [1] the target is T1, IKKα-His (UniProt O15111).
T1 sequence (looked up, limits assumed): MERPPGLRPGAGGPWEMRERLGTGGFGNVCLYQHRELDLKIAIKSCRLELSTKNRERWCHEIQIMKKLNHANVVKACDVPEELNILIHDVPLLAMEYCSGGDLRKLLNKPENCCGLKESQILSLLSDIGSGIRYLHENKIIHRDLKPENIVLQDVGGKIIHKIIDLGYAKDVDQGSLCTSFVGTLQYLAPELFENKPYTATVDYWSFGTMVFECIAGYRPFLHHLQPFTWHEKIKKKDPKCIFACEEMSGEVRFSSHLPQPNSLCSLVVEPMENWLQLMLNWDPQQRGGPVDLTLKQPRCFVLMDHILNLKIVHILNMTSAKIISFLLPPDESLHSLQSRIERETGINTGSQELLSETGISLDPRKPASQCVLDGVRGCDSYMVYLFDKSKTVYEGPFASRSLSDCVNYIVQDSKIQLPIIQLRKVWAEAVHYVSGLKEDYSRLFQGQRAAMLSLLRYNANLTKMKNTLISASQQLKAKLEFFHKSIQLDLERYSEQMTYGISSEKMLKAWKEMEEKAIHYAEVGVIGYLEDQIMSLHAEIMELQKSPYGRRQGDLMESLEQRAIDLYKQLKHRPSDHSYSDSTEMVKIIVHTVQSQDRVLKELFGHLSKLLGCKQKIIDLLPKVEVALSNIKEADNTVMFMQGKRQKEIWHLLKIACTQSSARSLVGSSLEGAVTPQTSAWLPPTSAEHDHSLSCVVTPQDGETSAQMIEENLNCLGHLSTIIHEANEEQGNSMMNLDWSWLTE
The data set can be described thus: EMSA. Particulars: EMSA: LightShift kit, 22 °C, 25 min; commercial protein; protein details: His. Background: Mobility shift assays separate free from complexed probe on a gel.

The target in data set [2] is T1, IKKα-His. Description: pull-down (in vitro RIP-qPCR). To be noted: negative control; pull-down: 25 mM HEPES pH 7.5, 150 mM NaCl, 0.05% NP-40, 10% glycerol, RT; commercial protein; protein details: His.

Construct, isoform or probe ends are uncertain for at least one entry. Negatives hold for the conditions tested. At least one verdict was read from the data and is not stated in words by the source. Tags and fusion partners may be left off the protein sequences shown.

For “CCUUGGUGGCCCAUAGUGCCAAUGGCCCGCCAAAGG [M3 RNA]”, the binding result with IKKα-His [1] is listed as “no binding”.
With “GAGACCCAAGCUUGGUACCGAGCUCGGAUCCUCGAGCAUGCAUCUAGAGG [EV RNA]”, in the data set with IKKα-His [2], the binding result is “no binding”.
